The target of the assay is vascular endothelial growth factor receptor 2 (VEGFR2), endogenous, from HUVEC lysates (human) (UniProt P35968). The assay is described as follows: pull-down from HUVEC lysate with recombinant protein on beads, anti-VEGFR2 western blot. A general note: A western blot detects proteins with antibodies after separation by electrophoresis.

Chains of the proteins cited; added tags and fusions are not shown. Residues count along the entry.
UniProt P35968, residues 20-1356: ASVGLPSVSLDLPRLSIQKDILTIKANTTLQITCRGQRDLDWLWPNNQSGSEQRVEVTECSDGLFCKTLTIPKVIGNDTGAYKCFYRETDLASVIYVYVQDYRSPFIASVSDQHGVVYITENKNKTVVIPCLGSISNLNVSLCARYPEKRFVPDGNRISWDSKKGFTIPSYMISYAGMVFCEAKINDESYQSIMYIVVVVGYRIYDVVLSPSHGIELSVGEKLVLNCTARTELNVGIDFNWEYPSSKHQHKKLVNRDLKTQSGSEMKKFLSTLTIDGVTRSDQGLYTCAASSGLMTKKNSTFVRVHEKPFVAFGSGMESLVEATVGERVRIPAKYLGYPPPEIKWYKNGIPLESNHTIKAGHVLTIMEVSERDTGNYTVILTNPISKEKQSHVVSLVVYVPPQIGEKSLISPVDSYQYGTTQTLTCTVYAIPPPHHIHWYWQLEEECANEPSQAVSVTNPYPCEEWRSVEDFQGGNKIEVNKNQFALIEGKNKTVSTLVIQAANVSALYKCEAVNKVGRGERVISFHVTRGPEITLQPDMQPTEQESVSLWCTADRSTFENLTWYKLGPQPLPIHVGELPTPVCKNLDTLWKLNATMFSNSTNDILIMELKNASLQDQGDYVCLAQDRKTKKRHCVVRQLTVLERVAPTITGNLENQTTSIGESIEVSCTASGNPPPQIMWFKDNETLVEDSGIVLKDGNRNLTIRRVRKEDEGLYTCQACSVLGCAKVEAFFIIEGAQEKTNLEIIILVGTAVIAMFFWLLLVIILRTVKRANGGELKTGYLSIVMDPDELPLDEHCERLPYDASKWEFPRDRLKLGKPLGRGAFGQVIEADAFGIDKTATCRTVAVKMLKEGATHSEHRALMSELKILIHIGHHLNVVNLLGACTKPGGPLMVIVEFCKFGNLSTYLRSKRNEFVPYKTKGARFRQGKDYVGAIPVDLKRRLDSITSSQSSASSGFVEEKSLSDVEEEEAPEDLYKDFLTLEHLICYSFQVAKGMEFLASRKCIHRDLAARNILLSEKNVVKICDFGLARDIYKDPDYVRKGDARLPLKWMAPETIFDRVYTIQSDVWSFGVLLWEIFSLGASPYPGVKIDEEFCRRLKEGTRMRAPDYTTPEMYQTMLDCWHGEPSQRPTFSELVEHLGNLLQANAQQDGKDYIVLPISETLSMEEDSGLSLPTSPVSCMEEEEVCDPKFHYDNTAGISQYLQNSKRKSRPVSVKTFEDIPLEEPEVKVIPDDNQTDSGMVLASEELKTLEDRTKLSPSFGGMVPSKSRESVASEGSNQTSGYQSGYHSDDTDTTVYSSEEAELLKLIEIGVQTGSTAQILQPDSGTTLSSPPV

Results are given in words; binding and its absence hold for the method and conditions named. In cells and extracts the contact can be indirect. Some binding calls cover weakened binding; strength is not graded here.

B1: DUF2C (residues 1217-1281 of KIF13B), recombinant protein from bacteria (protein, human, UniProt Q9NQT8 1217-1281, looked up, not shown: small tags and cut ends)
chain: HDGEVKAEASWDSAVHGCPQLSRGTPVDERLFLIVRVTVQLSHPADMQLVLRKRICVNVHGRQGF
In the case of B1, the binding result is “binds”.

Source of the values: patent publication US20190169241A1 (BOARD OF TRUSTEES OF THE UNIVERSITY OF ILLINOIS, published 2019).
